Laboratory results: patent US10946051B2, “Strain of Bifidobacterium animalis subsp. lactis CECT 8145 and use thereof for the treatment and/or prevention of excess weight and obesity and associated diseases” (priority 2013, dated 2021)
Converted amounts (≈) assume the structure as drawn.

Test system: strain BIF-1
Assay: Antibiotic resistance profile (minimum inhibitory concentration)
Format: cell-based, Bifidobacterium animalis subsp. lactis
Conditions: Bifidobacterium animalis, BIF1; read-out: CMI (minimum inhibitory concentration of antibiotics)
Procedure: Specifically, the production of unwanted metabolites was evaluated: lactic acid isomer production (Table 9), bile-salt deconjugation (Table 10) and biogenic amine production (Table 11), and the antibiotic resistance profile (Table 12).

CCC[C@@H]1C[C@@H](C(=O)N[C@@H]([C@H]2O[C@H](SC)[C@H](O)[C@@H](O)[C@H]2O)[C@H](C)Cl)N(C)C1 [Clindamycin]
MIC: 0.25 µg/mL (≈ 0.588 µM)
